According to US5204327A (Ashi Kasei Kogyo Kabushiki Kaisha, priority 1988, dated 1993):

Tests used:
[1] = general procedure: Boc solid-phase peptide synthesis; Boc-Tyr(2-BrZ)-PAM resin; conditions: whole synthesis, scale 0.5 mmol
[2] = general procedure: Boc solid-phase peptide synthesis; PAM resin (Boc-Tyr-(2-Bromobenzyloxycarbonyl)-PAM resin); conditions: whole synthesis, scale of the general procedure 0.5 mmol

For “PEPTIDE1{S.L.R.R.S.S.C.F.G.G.R.I.D.R.I.G.A.Q.S.G.L.G.C.N.S.F.R.Y}$PEPTIDE1,PEPTIDE1,7:R3-23:R3$$$V2.0”, the crude mass [1] was 0.3 g, the “final HPLC purity” value ([2]; HPLC peak area ratio) was 98.3% and the “final HPLC purity” value ([2]; HPLC, ratio of peak area to total peak area) was “about 95%”.

Strings that start with PEPTIDE1 are HELM notation: dots part the residues, brackets hold end groups and non-standard residues.
